These are yes or no findings as the source states them, for the method shown. In cells and extracts the contact can be indirect. Binding calls can cover weak binding; strength is not graded here. For part of these data: Tags and fused reporters may be left off the sequences shown.

For assay [1], the target named is T1, 6myc-HAS2 (hyaluronan synthase 2, wild type) (UniProt Q92819).
T1 sequence: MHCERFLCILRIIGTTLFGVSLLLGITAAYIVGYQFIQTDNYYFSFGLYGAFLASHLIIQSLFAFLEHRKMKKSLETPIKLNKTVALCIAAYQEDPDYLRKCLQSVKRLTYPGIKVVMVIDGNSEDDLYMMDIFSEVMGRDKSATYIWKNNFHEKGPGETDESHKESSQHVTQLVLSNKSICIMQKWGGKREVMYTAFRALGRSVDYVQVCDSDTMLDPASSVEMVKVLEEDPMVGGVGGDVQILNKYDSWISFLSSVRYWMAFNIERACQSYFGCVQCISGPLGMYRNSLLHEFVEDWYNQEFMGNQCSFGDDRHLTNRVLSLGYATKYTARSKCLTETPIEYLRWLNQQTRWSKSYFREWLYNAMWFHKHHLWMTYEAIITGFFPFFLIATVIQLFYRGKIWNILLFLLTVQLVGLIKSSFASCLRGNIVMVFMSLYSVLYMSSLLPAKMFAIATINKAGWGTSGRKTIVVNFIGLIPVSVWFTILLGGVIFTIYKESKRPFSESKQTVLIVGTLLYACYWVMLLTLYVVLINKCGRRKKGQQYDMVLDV
The experiment in a line: co-IP; membrane fractions of HEK293T cells co-expressing 6myc-HAS2 and Flag-DUB; TBS/Ca2+ buffer with 0.1% SDS, 0.5% NP-40; immunoprecipitation with anti-myc antibody and protein G-Sepharose overnight at 4 °C; blot with anti-Flag M2.

The target in assay [2] is T2, HAS2, endogenous (human (endogenous in MDA-MB-231-BM)) (UniProt Q92819).
T2 sequence: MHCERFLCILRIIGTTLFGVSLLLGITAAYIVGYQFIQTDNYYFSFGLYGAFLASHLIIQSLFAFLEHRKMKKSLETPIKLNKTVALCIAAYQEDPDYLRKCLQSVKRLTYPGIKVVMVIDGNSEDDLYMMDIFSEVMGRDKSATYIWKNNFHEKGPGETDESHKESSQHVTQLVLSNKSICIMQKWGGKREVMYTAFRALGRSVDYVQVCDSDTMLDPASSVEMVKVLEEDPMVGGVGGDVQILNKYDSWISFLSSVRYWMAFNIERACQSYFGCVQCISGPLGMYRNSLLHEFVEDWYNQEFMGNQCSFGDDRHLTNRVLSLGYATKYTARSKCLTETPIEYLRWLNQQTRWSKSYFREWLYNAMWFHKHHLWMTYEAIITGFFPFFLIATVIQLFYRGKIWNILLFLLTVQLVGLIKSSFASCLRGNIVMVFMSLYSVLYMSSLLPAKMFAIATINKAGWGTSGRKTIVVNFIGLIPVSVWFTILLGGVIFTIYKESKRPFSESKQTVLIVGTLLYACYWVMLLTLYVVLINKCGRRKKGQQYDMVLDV
Kind of assay: proximity ligation; in situ PLA on acetone-fixed MDA-MB-231-BM cells with antibodies against HAS2 and USP17 or USP4; endogenous proteins; also after release from double thymidine block and after HAS2 shRNA.

For assay [3], the target named is Flag-HA-USP17 (wild type; truncated protein of 413 amino-acid residues) (human). Kind of assay: co-IP; membrane fractions of HEK293T cells co-expressing 6myc-HAS2 and Flag-DUB; TBS/Ca2+ buffer with 0.1% SDS, 0.5% NP-40; immunoprecipitation with anti-Flag-M2 magnetic beads overnight at 4 °C; blot with anti-myc.

Regarding “Flag-HA-USP17 (wild type; truncated protein of 413 amino-acid residues) (human) (enzyme)”, in assay [1], the binding entry was “binds”.
For the molecule “USP17, endogenous (human (endogenous in MDA-MB-231-BM)) (enzyme)”, the binding result in assay [2] was “binds”.

B1: 6myc-HAS2 (hyaluronan synthase 2, wild type) (enzyme, UniProt Q92819 1-552)
chain: MHCERFLCILRIIGTTLFGVSLLLGITAAYIVGYQFIQTDNYYFSFGLYGAFLASHLIIQSLFAFLEHRKMKKSLETPIKLNKTVALCIAAYQEDPDYLRKCLQSVKRLTYPGIKVVMVIDGNSEDDLYMMDIFSEVMGRDKSATYIWKNNFHEKGPGETDESHKESSQHVTQLVLSNKSICIMQKWGGKREVMYTAFRALGRSVDYVQVCDSDTMLDPASSVEMVKVLEEDPMVGGVGGDVQILNKYDSWISFLSSVRYWMAFNIERACQSYFGCVQCISGPLGMYRNSLLHEFVEDWYNQEFMGNQCSFGDDRHLTNRVLSLGYATKYTARSKCLTETPIEYLRWLNQQTRWSKSYFREWLYNAMWFHKHHLWMTYEAIITGFFPFFLIATVIQLFYRGKIWNILLFLLTVQLVGLIKSSFASCLRGNIVMVFMSLYSVLYMSSLLPAKMFAIATINKAGWGTSGRKTIVVNFIGLIPVSVWFTILLGGVIFTIYKESKRPFSESKQTVLIVGTLLYACYWVMLLTLYVVLINKCGRRKKGQQYDMVLDV
Regarding B1, the binding result in assay [3] is “binds”.

For the origin of these results see publication PMC5519194.
